Further values from the same series stand in other lists.

These results are taken from US10590153B2, “Process for producing crystalline DTPMP” (Zschimmer & Schwarz Mohsdorf GmbH & Co. KG, priority 2014, dated 2020).

This data set is described as follows: Drying behaviour of crystallisates in dependence on residual moisture and product purity (tempering in sealed vials, visual points classification). The format is physicochemical. More on the design: key: 5 points=sample unchanged; 4 points=sample compacted/started to dissolve; 3 points=sample visibly started to dissolve; 2 points=sample cloudy highly viscous solution; 1 point=sample dissolved to clear solution. The conditions noted are these: sealed vial, shaken. The procedure: This dependency is shown by the following example for determining the drying behaviour of crystallisates in dependence on residual moisture and product purity.
A DTPMP solid isolated by recrystallisation is characterised by residues of adhering mother liquor via the quality parameters listed in the following table. Determination of the residual moisture content by means of a halogen dryer HB 43 S/Mettler Toledo is carried out isothermally at the indicated temperature using the shutoff criterion 4 (AK4=mean weight loss is <1 mg per 90 seconds):
After a purification step, which consists in suspending the solid in water and then separating it off by means of a filtering centrifuge, the following quality criteria are obtained:
The adhering residual moisture is removed stepwise from these solid samples in a rotary evaporator at 40° C. and 5 mbar vacuum, so that a series of samples with decreasing residual moisture content is prepared from each of the two purity grades (unwashed and washed).
4 ml borosilicate vials are filled with this sample material and the filling level is adjusted to ⅔ of the height of the glass by gentle tapping. In order to minimise evaporative losses, the screw cap of each vial is additionally sealed with a polyethylene film. All the samples are shaken in parallel in a tempering block on a heating and cooling shaker ThermoTwister comfort/Quantifoil Instruments GmbH for a defined period at a defined temperature and then assessed visually. Classification is made according to the following points system: […]

The mark [1] stands for this setting: Temperature 35 °C, test duration 24 h.
Setting [2] is: Temperature 40 °C, test duration 24 h.
Setting [3] is: Temperature 45 °C, test duration 24 h.
The mark [4] stands for this setting: Temperature 50 °C, test duration 24 h.
The mark [5] stands for this setting: Temperature 55 °C, test duration 24 h.
The mark [6] stands for this setting: Temperature 60 °C, test duration 24 h.
Setting [7] is: Temperature 65 °C, test duration 5 h.
[8] abbreviates: Temperature 70 °C, test duration 5 h.
The mark [9] stands for this setting: Temperature 75 °C, test duration 5 h.
Where [10] appears, read: Temperature 80 °C, test duration 5 h.
The mark [11] stands for this setting: Temperature 85 °C, test duration 5 h.
[12] abbreviates: Temperature 90 °C, test duration 5 h.

On to `O=P(O)(O)CN(CCN(CP(=O)(O)O)CP(=O)(O)O)CCN(CP(=O)(O)O)CP(=O)(O)O` [washed quality 26 [% by mass] residual moisture], for which the “Visual classification at the end of the tempering step (points system)” value (“Visual classification at the end” below) is 5 under setting [1]; 5 under setting [2]; 5 under setting [3]; 5 under setting [4]; 4 under setting [5]; 5 under setting [6]. For the same compound, the “Visual classification at the end” value reads like this: under setting [7], 4; under setting [8], 3; under setting [9], 3; under setting [10], 2; under setting [11], 2; under setting [12], 2.

Regarding `O=P(O)(O)CN(CCN(CP(=O)(O)O)CP(=O)(O)O)CCN(CP(=O)(O)O)CP(=O)(O)O` [washed quality 36 [% by mass] residual moisture], the “Visual classification at the end” value turned out to be 5 under setting [1]; 5 under setting [2]; 5 under setting [3]; 5 under setting [4]; 5 under setting [5]; 5 under setting [6]. The “Visual classification at the end” value came to 3 under setting [7]; 1 under setting [8]; 1 under setting [9]; 1 under setting [10]; 1 under setting [11]; 1 under setting [12].

In the case of `O=P(O)(O)CN(CCN(CP(=O)(O)O)CP(=O)(O)O)CCN(CP(=O)(O)O)CP(=O)(O)O` [washed quality 47 [% by mass] residual moisture], the “Visual classification at the end” value by setting is: under setting [1], 5; under setting [2], 5; under setting [3], 5; under setting [4], 5; under setting [5], 5; under setting [6], 5. For the same compound, the “Visual classification at the end” value runs as follows: under setting [7], 3; under setting [8], 1; under setting [9], 1; under setting [10], 1; under setting [11], 1; under setting [12], 1.

As for `O=P(O)(O)CN(CCN(CP(=O)(O)O)CP(=O)(O)O)CCN(CP(=O)(O)O)CP(=O)(O)O` [washed quality 32 [% by mass] residual moisture], the “Visual classification at the end” value reads like this: under setting [1], 5; under setting [2], 5; under setting [3], 5; under setting [4], 5; under setting [5], 5; under setting [6], 5. For the same compound, the “Visual classification at the end” value runs as follows: under setting [7], 4; under setting [8], 3; under setting [9], 3; under setting [10], 2; under setting [11], 2; under setting [12], 2.

For the compound `O=P(O)(O)CN(CCN(CP(=O)(O)O)CP(=O)(O)O)CCN(CP(=O)(O)O)CP(=O)(O)O` [washed quality 53 [% by mass] residual moisture], the “Visual classification at the end” value is, setting by setting: under setting [2], 5; under setting [3], 5; under setting [4], 5; under setting [5], 5; under setting [6], 3; under setting [7], 1. For the same compound, the “Visual classification at the end” value amounted to 1 under setting [8] and 1 under setting [9].

For `O=P(O)(O)CN(CCN(CP(=O)(O)O)CP(=O)(O)O)CCN(CP(=O)(O)O)CP(=O)(O)O` [washed quality 14 [% by mass] residual moisture], the “Visual classification at the end” value came to 5 under setting [1]; 5 under setting [2]; 5 under setting [3]; 5 under setting [4]; 5 under setting [5]; 5 under setting [6]. Also, the “Visual classification at the end” value by setting is: under setting [7], 5; under setting [8], 5; under setting [9], 5; under setting [10], 5; under setting [11], 5; under setting [12], 5.
